Experimental data as given in article PMC10621130.
Results are given in words; binding and its absence hold for the method and conditions named. In cells and extracts the contact can be indirect. Binding can be weak; no strength is given.

Target: T1, Novel (nua) kinase family 1 (NUAK1) (human (endogenous in KYSE30)) (UniProt O60285)
T1 sequence: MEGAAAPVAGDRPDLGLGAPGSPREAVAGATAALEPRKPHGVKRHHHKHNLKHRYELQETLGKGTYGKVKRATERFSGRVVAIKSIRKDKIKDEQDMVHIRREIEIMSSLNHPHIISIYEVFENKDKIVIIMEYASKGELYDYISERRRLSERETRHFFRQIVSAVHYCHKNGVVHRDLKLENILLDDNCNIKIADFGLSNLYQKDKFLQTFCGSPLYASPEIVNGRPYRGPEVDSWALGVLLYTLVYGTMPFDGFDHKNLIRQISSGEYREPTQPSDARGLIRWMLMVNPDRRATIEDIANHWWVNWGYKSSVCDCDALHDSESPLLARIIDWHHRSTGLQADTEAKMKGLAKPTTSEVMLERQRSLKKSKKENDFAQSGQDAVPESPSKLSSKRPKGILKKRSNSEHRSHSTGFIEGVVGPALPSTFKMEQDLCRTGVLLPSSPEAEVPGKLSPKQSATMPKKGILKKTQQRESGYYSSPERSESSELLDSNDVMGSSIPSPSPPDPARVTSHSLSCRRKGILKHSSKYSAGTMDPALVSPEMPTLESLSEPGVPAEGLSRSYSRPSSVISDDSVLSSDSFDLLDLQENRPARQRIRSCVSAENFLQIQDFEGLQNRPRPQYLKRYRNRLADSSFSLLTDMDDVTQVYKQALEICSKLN
Test: co-IP; KYSE30 cell lysates (lysis buffer with protease and phosphatase inhibitors) immunoprecipitated with anti-NUAK1, anti-JNK or control IgG and protein A magnetic beads overnight; washed three times; Western blot

- binding: binds
Substance: JNK (human (endogenous in KYSE30)) (enzyme)
